Measurements as given in the supplement of paper PMC8426693.
The other results are listed elsewhere or left out.

Legend:
Assay in all cases: NMR binding call after quantification (hit when 2 of 3 NMR criteria are met) (binary (1 = binding, 0 = not binding)); higher = binding
Details in all cases: RNA concentration 10 µM; fragment concentration 200 µM; 293 K
SARS-CoV-2 3'-UTR RNA = tested on: SARS-CoV-2 3'-UTR RNA
SARS-CoV-2 3_SL1 RNA = tested on: SARS-CoV-2 3_SL1 RNA
SARS-CoV-2 3_SL1+2 RNA = tested on: SARS-CoV-2 3_SL1+2 RNA
SARS-CoV-2 3_SL2 RNA = tested on: SARS-CoV-2 3_SL2 RNA
SARS-CoV-2 3_SL3base RNA = tested on: SARS-CoV-2 3_SL3base RNA
SARS-CoV-2 3_s2m RNA = tested on: SARS-CoV-2 3_s2m RNA

| Compound | NMR binding call (SARS-CoV-2 3'-UTR RNA) | NMR binding call (SARS-CoV-2 3_SL1 RNA) | NMR binding call (SARS-CoV-2 3_SL1+2 RNA) | NMR binding call (SARS-CoV-2 3_SL2 RNA) | NMR binding call (SARS-CoV-2 3_SL3base RNA) | NMR binding call (SARS-CoV-2 3_s2m RNA) |
| --- | --- | --- | --- | --- | --- | --- |
| CC(C)NC(=O)CN1CCCNCC1 | 0 | 0 | 0 | 0 | 0 | 0 |
| CC1CCN(CCN)CC1 | 0 | 0 | 0 | 0 | 0 | 0 |
| O=C(Nc1nc2ccccc2[nH]1)C1CCCCC1 | 0 | 0 | 0 | 0 | 0 | 0 |
| O=C(O)c1cccc(NC(=O)c2ccno2)c1 | 0 | 0 | 0 | 0 | 0 | 0 |
| Cc1cc(C(=O)NC(C)C)on1 | 0 | 0 | 0 | 0 | 0 | 0 |
| Cc1ccc(CN(C)Cc2ccccc2)o1 | 0 | 0 | 0 | 0 | 0 | 0 |
| CC(=O)Nc1ccc(CN2CCOCC2)cc1 | 0 | 0 | 0 | 0 | 0 | 0 |
| Cc1ccccc1CC(N)=O | 0 | 0 | 0 | 0 | 0 | 0 |
| CC(=O)Nc1ccc(C#N)cc1 | 0 | 0 | 0 | 0 | 0 | 0 |
| COCC(=O)Nc1ccc(O)cc1 | 0 | 0 | 0 | 0 | 0 | 0 |
| CN(CC(=O)O)C(=O)c1ccccn1 | 0 | 0 | 0 | 0 | 0 | 0 |
| COCC1CN(c2ccccn2)CCO1 (stereo unspecified) | 0 | 0 | 0 | 0 | 0 | 0 |
| CC(Cc1ccc(Br)cc1)C(N)=O (stereo unspecified) | 0 | 0 | 0 | 0 | 0 | 0 |
| OCCN1CCOCC1 | 0 | 0 | 0 | 0 | 0 | 0 |
| CCc1noc(C)c1C(=O)Nc1cc(C)on1 | 0 | 0 | 0 | 0 | 0 | 0 |
| CCc1ccccc1NC(=O)c1snnc1C | 0 | 0 | 0 | 0 | 0 | 0 |
| CC(=O)Nc1ccc(NC(=O)CC(C)C)cc1 | 0 | 0 | 0 | 0 | 0 | 0 |
| Nc1ccccc1N1CCOCC1 | 0 | 0 | 0 | 0 | 0 | 0 |
| O=C(Nc1ccc(F)cc1)Nc1ccc(F)cc1 | 0 | 0 | 0 | 0 | 0 | 0 |
| CCC(=O)Nc1cccc(N)c1C | 0 | 0 | 0 | 0 | 0 | 0 |
| CC1CCN(Cc2c[nH]c3ccccc23)CC1 | 0 | 0 | 0 | 0 | 0 | 0 |

| Compound | NMR binding call (SARS-CoV-2 3'-UTR RNA) | NMR binding call (SARS-CoV-2 3_SL1 RNA) | NMR binding call (SARS-CoV-2 3_SL1+2 RNA) | NMR binding call (SARS-CoV-2 3_SL2 RNA) | NMR binding call (SARS-CoV-2 3_SL3base RNA) | NMR binding call (SARS-CoV-2 3_s2m RNA) |
| --- | --- | --- | --- | --- | --- | --- |
| CC(CO)(CO)NC(=O)Nc1ccccc1 | 0 | 0 | 0 | 0 | 0 | 0 |
| COc1cccc2c1CCCC(=O)N2 | 0 | 0 | 0 | 0 | 0 | 0 |
| CC(=O)NCC1(O)CCCC1 | 0 | 0 | 0 | 0 | 0 | 0 |
| COCCNC1CCN(C(C)=O)CC1 | 0 | 0 | 0 | 0 | 0 | 0 |
| NNC(=O)c1ccc(OCc2ccccc2)cc1 | 0 | 0 | 0 | 0 | 0 | 0 |
| CN1CCN(C(=O)C2CCCN2)CC1 (stereo unspecified) | 0 | 0 | 0 | 0 | 0 | 0 |
| CC(C)c1ccc(NC(=O)N2CCOCC2)cc1 | 0 | 0 | 0 | 0 | 0 | 0 |
| CNC(=O)c1ccc(CS(C)(=O)=O)cc1 | 0 | 0 | 0 | 0 | 0 | 0 |
| Cc1nn(C)c(C)c1NC(=O)CC#N | 0 | 0 | 0 | 0 | 0 | 0 |
| CC(=O)Nc1cnccc1C | 0 | 0 | 0 | 0 | 0 | 0 |
| CC(C)(C)CC(=O)Nc1ccc(F)cc1F | 0 | 0 | 0 | 0 | 0 | 0 |
| CC(=O)N1CC(C(=O)O)C1 | 0 | 0 | 0 | 0 | 0 | 0 |
| O=c1[nH]cc(N2CCOCC2)c(=O)[nH]1 | 0 | 0 | 0 | 0 | 0 | 0 |
| Fc1cccc(CN2CCOCC2)c1 | 0 | 0 | 0 | 0 | 0 | 0 |
| OCc1ccccc1N1CCOCC1 | 0 | 0 | 0 | 0 | 0 | 0 |
| CNC1(CO)CCOCC1 | 0 | 0 | 0 | 0 | 0 | 0 |
| O=C(COc1ccccc1)NC1CCCCC1 | 0 | 0 | 0 | 0 | 0 | 0 |
| c1ccc2sc(N3CCOCC3)nc2c1 | 0 | 0 | 0 | 0 | 0 | 0 |
| CCc1cc(=O)n2nc(NC)sc2n1 | 0 | 0 | 0 | 0 | 0 | 0 |
| Cc1cc(C(=O)NC(C)C)nn1C | 0 | 0 | 0 | 0 | 0 | 0 |
| Cc1ccc(C(N)=O)c(F)c1 | 0 | 0 | 0 | 0 | 0 | 0 |

| Compound | NMR binding call (SARS-CoV-2 3'-UTR RNA) | NMR binding call (SARS-CoV-2 3_SL1 RNA) | NMR binding call (SARS-CoV-2 3_SL1+2 RNA) | NMR binding call (SARS-CoV-2 3_SL2 RNA) | NMR binding call (SARS-CoV-2 3_SL3base RNA) | NMR binding call (SARS-CoV-2 3_s2m RNA) |
| --- | --- | --- | --- | --- | --- | --- |
| CS(=O)(=O)c1nccn1Cc1cscn1 | 0 | 0 | 0 | 0 | 0 | 0 |
| CC1CN(S(C)(=O)=O)CCC1N (stereo unspecified) | 0 | 0 | 0 | 0 | 0 | 0 |
| CNc1nccnc1C#N | 0 | 0 | 0 | 0 | 0 | 0 |
| Cc1noc(CC(N)c2ccccc2)n1.Cl (stereo unspecified) | 0 | 0 | 0 | 0 | 0 | 0 |
| Cn1ccc(C(=O)NCC2CCCO2)n1 (stereo unspecified) | 0 | 0 | 0 | 0 | 0 | 0 |
| CCC(=O)Nc1ccc(S(N)(=O)=O)cc1 | 0 | 0 | 0 | 0 | 0 | 0 |
| Oc1ccc(CN2CCc3ccccc3C2)cc1 | 0 | 0 | 0 | 0 | 0 | 0 |
| CCC(NC)c1ccncc1 (stereo unspecified) | 0 | 0 | 0 | 0 | 0 | 0 |
| CC(=O)Nc1ccc2[nH]c(=O)[nH]c2c1 | 1 | 0 | 0 | 0 | 0 | 0 |
| CCCC(=O)Nc1nnn(CC)n1 | 0 | 0 | 0 | 0 | 0 | 0 |
| CN1CCN(CCN)CC1(C)C | 0 | 0 | 0 | 0 | 0 | 0 |
| CCC(CC)C(=O)Nc1ccccc1O | 0 | 0 | 0 | 0 | 0 | 0 |
| CNS(=O)(=O)c1cccc(C)c1F | 0 | 0 | 0 | 0 | 0 | 0 |
| CCCC(=O)NCc1nc2ccccc2[nH]1 | 0 | 0 | 0 | 0 | 0 | 0 |
| COc1cccc(C(N)CC(=O)O)c1 (stereo unspecified) | 0 | 0 | 0 | 0 | 0 | 0 |
| CC(N)c1ccc(N2CCOCC2)cc1 (stereo unspecified) | 0 | 0 | 0 | 0 | 0 | 0 |
| c1ccc(CNC2CCNC2)cc1 (stereo unspecified) | 0 | 0 | 0 | 0 | 0 | 0 |
| CCc1csc(-c2c[nH]cn2)n1 | 0 | 0 | 0 | 0 | 0 | 0 |
| Fc1ccc(CNCC2CCCO2)cc1 (stereo unspecified) | 0 | 0 | 0 | 0 | 0 | 0 |

Sorted by count of non-hydrogen atoms (ascending): part of the list above.

| Compound | NMR binding call (SARS-CoV-2 3'-UTR RNA) | NMR binding call (SARS-CoV-2 3_SL1 RNA) | NMR binding call (SARS-CoV-2 3_SL1+2 RNA) | NMR binding call (SARS-CoV-2 3_SL2 RNA) | NMR binding call (SARS-CoV-2 3_SL3base RNA) | NMR binding call (SARS-CoV-2 3_s2m RNA) |
| --- | --- | --- | --- | --- | --- | --- |
| OCCN1CCOCC1 | 0 | 0 | 0 | 0 | 0 | 0 |
| CC(=O)N1CC(C(=O)O)C1 | 0 | 0 | 0 | 0 | 0 | 0 |
| CCC(=O)Nc1ccc(S(N)(=O)=O)cc1 | 0 | 0 | 0 | 0 | 0 | 0 |
